From article PMC10086758 come the findings set out here.

Protein sequences, listed by entry. Tags and fused reporters are not part of them.
UniProt O88536: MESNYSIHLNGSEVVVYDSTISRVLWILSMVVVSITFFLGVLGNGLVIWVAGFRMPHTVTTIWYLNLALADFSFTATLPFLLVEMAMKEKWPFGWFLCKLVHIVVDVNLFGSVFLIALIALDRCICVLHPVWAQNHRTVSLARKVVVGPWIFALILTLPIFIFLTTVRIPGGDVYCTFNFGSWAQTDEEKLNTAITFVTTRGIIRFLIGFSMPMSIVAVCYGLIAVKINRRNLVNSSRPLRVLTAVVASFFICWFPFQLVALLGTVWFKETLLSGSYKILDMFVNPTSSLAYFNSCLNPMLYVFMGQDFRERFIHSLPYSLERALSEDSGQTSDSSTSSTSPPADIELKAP

No constants are given. Whether binding was seen depends on the method and setting. In cells and extracts the contact can be indirect. Some entries that bind do so weakly or less than the wild type.

The experiment addresses T1, sphingosine-1-phosphate receptor 4 (UniProt Q9Z0L1).
T1 sequence: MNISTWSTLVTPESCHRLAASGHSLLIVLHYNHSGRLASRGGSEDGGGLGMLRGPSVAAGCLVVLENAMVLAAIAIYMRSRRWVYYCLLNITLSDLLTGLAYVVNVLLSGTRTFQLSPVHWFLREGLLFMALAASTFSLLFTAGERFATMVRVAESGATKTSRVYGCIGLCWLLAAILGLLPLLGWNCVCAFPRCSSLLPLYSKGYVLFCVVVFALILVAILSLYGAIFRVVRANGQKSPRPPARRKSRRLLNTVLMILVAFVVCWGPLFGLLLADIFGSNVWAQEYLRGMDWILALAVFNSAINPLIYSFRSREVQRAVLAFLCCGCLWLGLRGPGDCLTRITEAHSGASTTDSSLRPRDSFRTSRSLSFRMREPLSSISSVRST
The experiment can be described thus: co-IP; whole-cell lysate of adenovirus-treated BMDMs from WT mice; anti-FLAG antibody at 4°C overnight, magnetic beads 2 h at 4°C, three washes with lysis buffer, western blot for FLAG and FPR2. In general terms: In western blotting, separated proteins are transferred to a membrane and probed.

Regarding “formyl peptide receptor 2 (from UniProt O88536 1-351)”, the binding result was “binds”.
